The test system of the assay is L1210 leukemia ip in BDF1 mice, survival T/C. In words: NCI In Vivo Anticancer Drug Screen. Data for tumor model L1210 Leukemia (intraperitoneal) in B6D2F1 (BDF1) mice. The note with it: T/C endpoint: mean survival time, higher T/C = longer survival.
[1] abbreviates: dose: 100.0 mg/kg/injection, schedule: Q01DX009 (ip), vehicle: saline.
Setting [2] is: dose: 200.0 mg/kg/injection, schedule: Q01DX009 (ip), vehicle: saline.
Setting [3] is: dose: 100.0 mg/kg/injection, schedule: Q04DX003 (ip), vehicle: saline with Tween-80.
The mark [4] stands for this setting: dose: 200.0 mg/kg/injection, schedule: Q04DX003 (ip), vehicle: saline with Tween-80.
The mark [5] stands for this setting: dose: 400.0 mg/kg/injection, schedule: Q04DX003 (ip), vehicle: saline with Tween-80.

The list is a part of this screen's results and no random one: it is rich in T/C values a quarter to a half above the control, in often repeated tests (any T/C) and in doses without a T/C. Further doses and runs are listed elsewhere. T/C gives the treated animals as a percentage of the vehicle group. Some doses have a count of surviving animals in place of a T/C: the source holds a T/C of zero for them, seemingly a mark for toxic or unscored doses. Some doses without a T/C left all or most animals alive at the check, yet need not have been tolerated: the source hardly ever lists a survival T/C far under the control, and the zero likely stands for such cases as well. Survivors were counted at the toxicity check, usually on the fifth day, unless a day is given; later deaths do not show. Schedule codes are those of the source, read here as Q, the interval in days (D) or hours (H), X, the number of doses. Some schedules carry Z or #; the key to these is not given. Some doses were run more than once; their values stand side by side, smallest first. Where survival is the endpoint, this PubChem deposit counts one and a half times the control or more as active, and values a quarter to a half above the control carry no call in these data; other NCI protocols may use other cut-offs.

For `CN=C(c1ccc(NC(=O)c2ccc(C(=O)Nc3ccc(C(=NC)N(C)C)cc3)cc2)cc1)N(C)C`, the survivor count is 0 of 6 (dose: 15.0 mg/kg/injection, schedule: Q01DX Z (ip), vehicle: saline); 0 of 6 (dose: 30.0 mg/kg/injection, schedule: Q01DX Z (ip), vehicle: saline); 0 of 6 (dose: 60.0 mg/kg/injection, schedule: Q01DX Z (ip), vehicle: saline); 0 of 6 (dose: 120.0 mg/kg/injection, schedule: Q01DX Z (ip), vehicle: saline).
For the compound `Nc1nc(N)c(-c2ccc(Cl)c(Cl)c2)c(COc2ccc(NC(=O)c3ccc(S(=O)(=O)F)cc3)cc2Cl)n1`, the survivor count (dose: 200.0 mg/kg/injection, schedule: Q01DX001 (ip), vehicle: Klucel (hydroxypropylcellulose) (HPC)) is given as 6 of 6.
For `COc1ccc2c(c1)CCC1=C2CCC(C)(C(C)=O)C1C(=O)O` (configuration not stated), the survivor count reads like this: (dose: 200.0 mg/kg/injection, schedule: Q04DX003 (ip), vehicle: Klucel (hydroxypropylcellulose) (HPC)) 6 of 6; (dose: 400.0 mg/kg/injection, schedule: Q04DX003 (ip), vehicle: Klucel (hydroxypropylcellulose) (HPC)) 5 of 6.
With `Cc1nc(NN)c(C(N)=O)nc1C`, the survivor count was 0 of 6 under setting [1] and 0 of 6 under setting [2].
As for `C1COC(NC2CC3CCC2C3)=N1` (configuration not stated), the survivor count was 3 of 6 under setting [3], 0 of 6 under setting [4] and 0 of 6 under setting [5].
`CN(C)CCN1C(=O)CC(c2ccccc2)Sc2ccccc21` (configuration not stated): the survivor count under setting [1] is 1 of 6; the survivor count (dose: 100.0 mg/kg/injection, schedule: Q04DX003 (ip), vehicle: saline) is listed as 3 of 4; the survivor count under setting [2] was 0 of 6; the survivor count (dose: 200.0 mg/kg/injection, schedule: Q04DX003 (ip), vehicle: saline) is 0 of 4; the survivor count (dose: 400.0 mg/kg/injection, schedule: Q01DX009 (ip), vehicle: saline) is given as 0 of 6; the survivor count (dose: 400.0 mg/kg/injection, schedule: Q04DX003 (ip), vehicle: saline) is listed as 0 of 4.
Consider `C=CCOP(=O)(N1CC1C)N1CC1C` (configuration not stated), for which the T/C by setting is: (dose: 89.0 mg/kg/injection, schedule: Q01DX001 (ip), vehicle: saline) 125 % of control; (dose: 100.0 mg/kg/injection, schedule: Q01DX001 (ip), vehicle: saline) 130 % of control; (dose: 133.0 mg/kg/injection, schedule: Q01DX001 (ip), vehicle: saline) 125 and 132 % of control; (dose: 200.0 mg/kg/injection, schedule: Q01DX001 (ip), vehicle: saline) 141 and 145 % of control; (dose: 300.0 mg/kg/injection, schedule: Q01DX001 (ip), vehicle: saline) 133 % of control. Besides, the survivor count (dose: 100.0 mg/kg/injection, schedule: Q01DX015 (ip), vehicle: saline) is listed as 5 of 6.
Turning to `NC(CSS(=O)(=O)O)=NCCCCc1ccccc1`, the survivor count is, setting by setting: (dose: 50.0 mg/kg/injection, schedule: Q04DX002 (ip), vehicle: Klucel (hydroxypropylcellulose) (HPC)) 3 of 3; (dose: 100.0 mg/kg/injection, schedule: Q04DX002 (ip), vehicle: Klucel (hydroxypropylcellulose) (HPC)) 1 of 3; (dose: 200.0 mg/kg/injection, schedule: Q04DX002 (ip), vehicle: Klucel (hydroxypropylcellulose) (HPC)) 2 of 3; (dose: 400.0 mg/kg/injection, schedule: Q04DX002 (ip), vehicle: Klucel (hydroxypropylcellulose) (HPC)) 0 of 3.
`O=[N+]([O-])c1ccc2c(c1)S(=O)c1ccccc1-2` (configuration not stated): the survivor count under setting [5] is given as 3 of 6.
In the case of `Cc1ccc(O)c(CCCO)c1`, the survivor count (dose: 400.0 mg/kg/injection, schedule: Q01DX001 (ip), vehicle: saline) is listed as 0 of 4.
Regarding `Cc1c(O)ccc(=O)n1O`, the T/C was 130 % of control (dose: 73.0 mg/kg/injection, schedule: Q01DX Z (ip), vehicle: methylcellulose (MC)); 130 % of control (dose: 110.0 mg/kg/injection, schedule: Q01DX Z (ip), vehicle: methylcellulose (MC)); 126 % of control (dose: 133.0 mg/kg/injection, schedule: Q01DX001 (ip), vehicle: carboxymethylcellulose (CMC)); 131 % of control (dose: 143.0 mg/kg/injection, schedule: Q01DX009 (ip), vehicle: Klucel (hydroxypropylcellulose) (HPC)); 131 % of control (dose: 165.0 mg/kg/injection, schedule: Q01DX Z (ip), vehicle: methylcellulose (MC)); 125 % of control (dose: 200.0 mg/kg/injection, schedule: Q01DX001 (ip), vehicle: carboxymethylcellulose (CMC)). Besides, the survivor count by setting is: (dose: 143.0 mg/kg/injection, schedule: Q03HX024 (ip), vehicle: Klucel (hydroxypropylcellulose) (HPC)) 8 of 10; (dose: 215.0 mg/kg/injection, schedule: Q01DX009 (ip), vehicle: Klucel (hydroxypropylcellulose) (HPC)) 8 of 10; (dose: 247.0 mg/kg/injection, schedule: Q01DX Z (ip), vehicle: carboxymethylcellulose (CMC)) 6 of 6; (dose: 247.0 mg/kg/injection, schedule: Q01DX Z (ip), vehicle: saline) 6 of 6; (dose: 322.0 mg/kg/injection, schedule: Q01DX009 (ip), vehicle: Klucel (hydroxypropylcellulose) (HPC)) 6 of 10; (dose: 322.0 mg/kg/injection, schedule: Q03HX024 (ip), vehicle: Klucel (hydroxypropylcellulose) (HPC)) 0 of 10. The survivor count is 0 of 6 (dose: 370.0 mg/kg/injection, schedule: Q01DX Z (ip), vehicle: saline); 6 of 10 (dose: 520.0 mg/kg/injection, schedule: Q01DX001 (ip), vehicle: Klucel (hydroxypropylcellulose) (HPC)); 3 of 10 and 4 of 10 (dose: 520.0 mg/kg/injection, schedule: Q04DX003 (ip), vehicle: Klucel (hydroxypropylcellulose) (HPC)); 0 of 4 (dose: 800.0 mg/kg/injection, schedule: Q01DX001 (ip), vehicle: carboxymethylcellulose (CMC)); 1 of 8 (dose: 800.0 mg/kg/injection, schedule: Q01DX009 (ip), vehicle: Klucel (hydroxypropylcellulose) (HPC)); 0 of 10 (dose: 960.0 mg/kg/injection, schedule: Q01DX001 (ip), vehicle: Klucel (hydroxypropylcellulose) (HPC)). The survivor count is 0 of 10 (dose: 960.0 mg/kg/injection, schedule: Q04DX003 (ip), vehicle: Klucel (hydroxypropylcellulose) (HPC)); 0 of 10 (dose: 1430.0 mg/kg/injection, schedule: Q01DX001 (ip), vehicle: Klucel (hydroxypropylcellulose) (HPC)); 0 of 10 (dose: 1430.0 mg/kg/injection, schedule: Q04DX003 (ip), vehicle: Klucel (hydroxypropylcellulose) (HPC)); 0 of 10 (dose: 2150.0 mg/kg/injection, schedule: Q01DX001 (ip), vehicle: Klucel (hydroxypropylcellulose) (HPC)); 0 of 10 (dose: 2150.0 mg/kg/injection, schedule: Q04DX003 (ip), vehicle: Klucel (hydroxypropylcellulose) (HPC)); 0 of 10 (dose: 3220.0 mg/kg/injection, schedule: Q01DX001 (ip), vehicle: Klucel (hydroxypropylcellulose) (HPC)). For the same compound, the survivor count (dose: 3220.0 mg/kg/injection, schedule: Q04DX003 (ip), vehicle: Klucel (hydroxypropylcellulose) (HPC)) is given as 0 of 10.
Consider `CC(Cc1ccccc1)NN` (configuration not stated), for which the survivor count reads like this: (dose: 31.25 mg/kg/injection, schedule: Q01DX009 (ip), vehicle: saline) 5 of 6; (dose: 62.5 mg/kg/injection, schedule: Q01DX009 (ip), vehicle: saline) 0 of 6; (dose: 125.0 mg/kg/injection, schedule: Q04DX003 (ip), vehicle: saline) 3 of 4; (dose: 250.0 mg/kg/injection, schedule: Q04DX003 (ip), vehicle: saline) 0 of 4.
Turning to `Brc1ccc(-c2csc3cccc[n+]23)cc1`, the survivor count is, setting by setting: under setting [3], 0 of 6; under setting [4], 0 of 6; under setting [5], 0 of 6.

The record behind these values is PubChem BioAssay AID248 (DTP/NCI, 2004).
